Test results taken from article PMC9061857 (Nature Communications, 2022).
Where no end group is shown, it is not given here.

Test: general procedure: Fmoc solid-phase peptide synthesis; 2-chlorotrityl chloride polystyrene resin; COMU/Oxyma/DIPEA
Settings: whole synthesis

Substance | final HPLC purity [%]
IEFDAL | 99
IEPDAG | 97
IEPDAL | 96
IEPDRL | 99
IEPDSG | 94
IEPDSL | 96
IEPDWL | 93
IEPDWR | 95
